In this experiment the target is Pyruvate dehydrogenase kinase 1 (human (endogenous in Skov3 and Caov3)) (UniProt Q15118). As to the kind of experiment: co-IP; lysates from Skov3 or Caov3 cells incubated with the targeted antibodies (or goat-anti-rabbit IgG as a control) and A/G agarose beads at 4°C for 6 h; washed; western blot.

Sequences of proteins named here, by UniProt entry; tags and fusion partners are left off. Residues count along the entry.
UniProt Q15118, residues 29-436: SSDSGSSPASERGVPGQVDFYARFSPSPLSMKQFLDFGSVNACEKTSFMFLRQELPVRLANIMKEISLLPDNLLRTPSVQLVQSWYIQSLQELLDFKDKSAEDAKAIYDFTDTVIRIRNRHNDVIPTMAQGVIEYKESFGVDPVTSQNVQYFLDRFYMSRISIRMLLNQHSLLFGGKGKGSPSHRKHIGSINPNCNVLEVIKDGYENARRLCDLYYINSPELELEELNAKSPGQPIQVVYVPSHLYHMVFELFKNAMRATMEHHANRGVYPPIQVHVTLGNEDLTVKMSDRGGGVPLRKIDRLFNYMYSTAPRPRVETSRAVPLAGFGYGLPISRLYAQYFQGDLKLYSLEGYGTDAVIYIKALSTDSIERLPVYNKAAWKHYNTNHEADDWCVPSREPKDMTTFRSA

Drawing on PMC12130725, this text covers binding for one molecule.

Results are given in words; binding and its absence hold for the method and conditions named. Binding seen in cells or lysates may run through a third protein. Some entries that bind do so weakly or less than the wild type.

B1: Biglycan (protein, UniProt P21810 38-368)
chain: DEEASGADTSGVLDPDSVTPTYSAMCPFGCHCHLRVVQCSDLGLKSVPKEISPDTTLLDLQNNDISELRKDDFKGLQHLYALVLVNNKISKIHEKAFSPLRKLQKLYISKNHLVEIPPNLPSSLVELRIHDNRIRKVPKGVFSGLRNMNCIEMGGNPLENSGFEPGAFDGLKLNYLRISEAKLTGIPKDLPETLNELHLDHNKIQAIELEDLLRYSKLYRLGLGHNQIRMIENGSLSFLPTLRELHLDNNKLARVPSGLPDLKLLQVVYLHSNNITKVGVNDFCPMGFGVKRAYYNGISLFNNPVPYWEVQPATFRCVTDRLAIQFGNYKK
Take B1: the binding entry is recorded as “binds”.
